In US12109252B2, “Systems, methods and products for minimizing tissue reactions and tissue injury at an infusion site” (Cell and Molecular Tissue Engineering, LLC, priority 2016, dated 2024):

Test system: human peripheral blood leukocytes
Assay: Uptake of FITC-insulin by human leukocytes (fluorescent microscopy)
Assay type: cell-based
Conditions: PMNs, monocytes; not lymphocytes

Substance: FITC-insulin: fluorescent insulin (FITC-insulin; Sigma, St. Louis, MO)
- uptake by human leukocytes: take up and degrade; also recorded: taken up

Entries after “also recorded” stand apart in the source; their conditions may differ.
